Values from PubChem BioAssay AID1259424 (University of Nebraska Medical Center, 2018)

Screen: 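Seek colon cancer survival genes behaving like KSR1, using a six-gene signature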 (primary screen)
Cells: human HCT116 colon cancer cells
Reagents: siRNA pool against human genes, 50 nM
Detection: 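Log2 levels of six mRNAs (branched-DNA multiplex), adjusted by two reference genes and the non-targeting median, then scored against the average KSR1 knockdown pattern as Pearson r and euclidean distance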
Scale: mean correlation with KSR1 profile: higher = expression change more like KSR1 knockdown; mean distance from KSR1 profile: higher = expression change less like KSR1 knockdown
In all, the deposit lists about 14,000 reagents; below is a part drawn at random. 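Higher correlation or smaller distance means closer resemblance to KSR1 loss; control wells, including KSR1 knockdowns, recur on many plates.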 Further read-outs or replicates are left out here. Not stated in the record: the time to read-out.

For ELOB, what was measured?
mean correlation with KSR1 profile: -0.898; mean distance from KSR1 profile: 7.08

How did the screen score COMMD8?
mean correlation with KSR1 profile: -0.569; mean distance from KSR1 profile: 7.42

With FUNDC2, what was measured?
mean correlation with KSR1 profile: 0.114; mean distance from KSR1 profile: 1.23

What is on record for CCPG1?
mean correlation with KSR1 profile: -0.333; mean distance from KSR1 profile: 1.82

With MPST, what was measured?
mean correlation with KSR1 profile: -0.366; mean distance from KSR1 profile: 2.27

What is on record for SLC38A4?
mean correlation with KSR1 profile: -0.0779; mean distance from KSR1 profile: 2.23

Which result is listed for IL17C?
mean correlation with KSR1 profile: 0.0536; mean distance from KSR1 profile: 2.26

For OR7A17, what was measured?
mean correlation with KSR1 profile: 0.776; mean distance from KSR1 profile: 2.12

For H2AC11, how do the results read?
mean correlation with KSR1 profile: 0.225; mean distance from KSR1 profile: 1.41

Part of the list above in another layout:
{"gene symbol":"FUNDC2","mean correlation with KSR1 profile":0.114,"mean distance from KSR1 profile":1.23}
{"gene symbol":"CCPG1","mean correlation with KSR1 profile":-0.333,"mean distance from KSR1 profile":1.82}
{"gene symbol":"MPST","mean correlation with KSR1 profile":-0.366,"mean distance from KSR1 profile":2.27}

The results go on:
With PFN1P3, what was measured?
mean correlation with KSR1 profile: -0.461; mean distance from KSR1 profile: 2.34

How did the screen score SERPINB5?
mean correlation with KSR1 profile: 0.542; mean distance from KSR1 profile: 3.22

How did the screen score GMPR?
mean correlation with KSR1 profile: 0.554; mean distance from KSR1 profile: 0.965

What is on record for COPS2?
mean correlation with KSR1 profile: -0.435; mean distance from KSR1 profile: 2.17

Which result is listed for SSR4?
mean correlation with KSR1 profile: 0.574; mean distance from KSR1 profile: 1.3

What is on record for KLF8?
mean correlation with KSR1 profile: -0.304; mean distance from KSR1 profile: 2.23

For MAS1, what was measured?
mean correlation with KSR1 profile: 0.636; mean distance from KSR1 profile: 1.33

With PIH1D1, what was measured?
mean correlation with KSR1 profile: -0.323; mean distance from KSR1 profile: 3.58

What is on record for CEP63?
mean correlation with KSR1 profile: 0.104; mean distance from KSR1 profile: 2.09

For CHL1, how do the results read?
mean correlation with KSR1 profile: -0.402; mean distance from KSR1 profile: 1.65

How did the screen score LANCL2?
mean correlation with KSR1 profile: 0.312; mean distance from KSR1 profile: 1.91

With EML1, what was measured?
mean correlation with KSR1 profile: 0.235; mean distance from KSR1 profile: 1.88

What did the screen give for PTMA?
mean correlation with KSR1 profile: -0.444; mean distance from KSR1 profile: 2.07

With LDAH, what does the deposit list?
mean correlation with KSR1 profile: -0.329; mean distance from KSR1 profile: 2.05

What did the screen give for AFG2B?
mean correlation with KSR1 profile: 0.277; mean distance from KSR1 profile: 3.88

How did the screen score KCNJ15?
mean correlation with KSR1 profile: -0.458; mean distance from KSR1 profile: 1.15

What is on record for MTMR7?
mean correlation with KSR1 profile: -0.713; mean distance from KSR1 profile: 2.28

Which result is listed for CBX8?
mean correlation with KSR1 profile: 0.17; mean distance from KSR1 profile: 2.25

What is on record for WNK4?
mean correlation with KSR1 profile: 0.384; mean distance from KSR1 profile: 2.16
